# Laboratory results from patent US20100234450.
# Protein sequences, listed by entry. Tags and fused reporters are not part of them. Lines headed by an entry give the natural chain unless they say otherwise; changes in a name come on top.
# UniProt Q04609: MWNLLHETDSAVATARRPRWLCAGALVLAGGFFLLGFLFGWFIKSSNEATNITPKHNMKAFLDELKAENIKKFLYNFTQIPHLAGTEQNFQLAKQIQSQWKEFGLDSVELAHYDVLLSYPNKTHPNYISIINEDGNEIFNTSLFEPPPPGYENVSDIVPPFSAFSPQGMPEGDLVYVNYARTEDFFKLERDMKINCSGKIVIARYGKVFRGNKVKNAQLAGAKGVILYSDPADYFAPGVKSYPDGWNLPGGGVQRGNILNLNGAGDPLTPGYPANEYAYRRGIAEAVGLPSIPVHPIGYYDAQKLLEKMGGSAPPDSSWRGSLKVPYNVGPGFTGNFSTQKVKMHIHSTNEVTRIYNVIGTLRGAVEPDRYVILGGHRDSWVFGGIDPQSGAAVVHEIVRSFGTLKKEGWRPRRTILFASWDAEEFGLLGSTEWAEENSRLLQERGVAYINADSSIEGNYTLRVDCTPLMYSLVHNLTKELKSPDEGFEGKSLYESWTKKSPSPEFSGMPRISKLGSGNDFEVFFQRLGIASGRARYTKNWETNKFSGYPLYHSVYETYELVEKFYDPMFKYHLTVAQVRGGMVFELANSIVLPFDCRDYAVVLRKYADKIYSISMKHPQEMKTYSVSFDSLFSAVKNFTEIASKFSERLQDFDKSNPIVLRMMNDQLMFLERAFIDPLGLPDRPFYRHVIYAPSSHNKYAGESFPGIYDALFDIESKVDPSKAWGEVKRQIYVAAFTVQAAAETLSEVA
# Target: PSMA (prostate-specific membrane antigen) (Homo sapiens) (UniProt Q04609)
# Assay: binding assay
# Conditions: 5'-NOTA chelator via linker; in vivo PET, 22Rv1(1.7) xenograft in nude mouse, tumor:background 8:1 at 120 min; protein on the cell surface; label: 68Ga; variant of A10-3.2 (32P)
sequence,measurement,value
GGGAGGACGAUGCGGAUCAGCCAUGUUUACGUCACUCCU [68Ga-NOTA-A10-3.2],binding result,binds

# Where cells or extracts were used, other partners may take part.
